# From PubChem BioAssay AID2685 (National Center for Advancing Translational Sciences (NCATS), 2010)
# This is one part of the list. Shown are side measurements of this screen, not its main read-out; they come without a call. Compounds called inactive in the main read-out are mostly missing here. Potencies come from curve fits of mixed quality, noted in brackets.
# Assay: qHTS Assay for Lipid Storage Modulators in Drosophila S3 Cells;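 as to cell number change: cells counted by Cell Tracker Red CMTPX staining in the red channel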
# Conditions: BODIPY lipid droplet fluorescence, 18-24 h; for cell number change: measured here: cell count max response, cells fed with added oleic acid
# How it was run: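 Drosophila S3 cells loaded with oleic acid (400 uM, as added) and compounds at several concentrations; lipid droplets imaged by 488-nm laser-scanning cytometry, 500–530 nm intensity and object ratio to cell channel. Percent activity normalized to 20 uM Triacsin C.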
# [1] = measured here: lipid fluorescence (Fed channel) AC50, cells fed with added oleic acid
# [2] = measured here: cell number channel AC50, cells fed with added oleic acid
Compound,cell number change,AC50 [1],AC50 [2]
Clc1ccsc1-c1ccc2ccccc2n1,-27.7%,,
Cc1ccc(N2CC(C(=O)OCC(=O)C(C)(C)C)CC2=O)cc1C (configuration not stated),-0.597%,"3.26 µM [falling, full curve]",
Cc1[nH]c2ccccc2c1C(c1ccncc1)N1CCN(c2ccccc2F)CC1 (configuration not stated),66.7%,,"29.1 µM [rising, single point]"
CC(=O)c1ccc(-c2ccc(C(=O)N3CCN(c4ccc(F)cc4)CC3)o2)cc1,,"2.31 µM [rising, full curve]","3.66 µM [rising, partial curve]"
O=C(Nc1ccc2nc(N3CCOCC3)sc2c1)c1ccccc1,-3.25%,"0.92 µM [falling, full curve]","1.03 µM [falling, full curve, poor fit]"
CCC(C)(C)C1CCc2[nH]nc(C(=O)NC(C)C)c2C1 (configuration not stated),-44.9%,,"18.4 µM [falling, single point]"
COC(=O)CNC(=O)CCC(=O)N1CCN(C(c2ccccc2)c2ccccc2)CC1,-18.7%,"0.58 µM [rising, single point]",
CCCCOc1ccc(C(=O)NCC(=O)NCC2CCCO2)cc1 (configuration not stated),21.8%,"0.517 µM [rising, partial curve]",
O=C(Nc1ccc(N2CCOCC2)cc1)C1CCCN(S(=O)(=O)c2ccccc2)C1 (configuration not stated),-13.5%,,"0.651 µM [falling, full curve, poor fit]"
Cc1nc(NC(C)C)c2oc3ccccc3c2n1,,"18.4 µM [falling, partial curve, poor fit]",
Cc1c(NC(=O)C(C)OC(=O)/C=C/c2ccco2)c(=O)n(-c2ccccc2)n1C (configuration not stated),-51.4%,"0.0517 µM [falling, full curve]","9.2 µM [falling, full curve, poor fit]"
C[C@H](NC(=O)c1[nH]cnc1C(=O)Nc1ccccc1)c1ccccc1,-59.8%,"10.3 µM [falling, single point]","9.2 µM [falling, single point]"
CC12CCC(=O)N1C(C(=O)Nc1ccc(Cl)c(S(=O)(=O)N3CCCCC3)c1)CS2 (configuration not stated),22.9%,"20.6 µM [rising, single point]",
O=C(NC(=S)N1CCN(C2CCCCC2)CC1)c1ccccc1,52.5%,,"29.1 µM [rising, single point]"
O=C(N/N=C/c1ccc(O)c(O)c1)c1cccc(S(=O)(=O)N2CCCC2)c1,129%,"0.517 µM [rising, full curve, poor fit]","18.4 µM [rising, single point]"
Cc1ccc2nc(-c3ccc(Br)cc3)cn2c1,-6.08%,,
COc1cc(/C=C2\SC(N)=NC2=O)ccc1OCC(=O)Nc1ccccc1C,-24.1%,"5.17 µM [rising, single point]",
CCOC(=O)c1ccc(-c2ccc(/C=C(\C#N)C(=O)NCc3cccs3)o2)cc1,6.48%,"0.146 µM [falling, single point]",
CCCCCN(C(=O)CCC(=O)OCc1ccc(C(C)C)cc1)c1c(N)n(CCCC)c(=O)[nH]c1=O,150%,,"29.1 µM [rising, single point]"
COc1ccccc1NCC(=O)c1ccc(C)c(C)c1,10.6%,,

Compound,cell number change,AC50 [1],AC50 [2]
Cc1cc(F)ccc1S(=O)(=O)N1CCCCC1CCNC(=O)C(=O)NCc1ccccn1 (configuration not stated),1.98%,"14.6 µM [falling, partial curve]","3.26 µM [falling, single point]"
CC(C)OP(=O)(c1ccc(N(C)C)cc1)C(O)c1ccc(Br)cc1 (configuration not stated),16.8%,"18.4 µM [rising, partial curve]",
Cc1cc(N2C(=O)CCC2=O)ccc1NC(=O)c1cccs1,,,"0.366 µM [rising, single point]"
O=C(c1cc(-c2ccc(F)cc2)nc2ccccc12)N1CCN(C2CCS(=O)(=O)C2)CC1 (configuration not stated),0.648%,,
COc1c(C(=O)Nc2nnc(C3CC3)s2)csc1Cl,,"6.51 µM [rising, single point]",
CC1CCCC(NC(=O)COC(=O)c2cc(S(=O)(=O)N3CCOCC3)ccc2F)C1C (configuration not stated),-9.4%,"0.58 µM [falling, single point]",
CCc1cccc2c(C(=O)CN3C(=O)NC(C)(c4cccc5ccccc45)C3=O)c[nH]c12 (configuration not stated),-33%,"13 µM [falling, partial curve]","11.6 µM [falling, partial curve]"
COc1cc(C(=O)NNC(=S)NC(=O)c2ccc(F)cc2)cc(OC)c1OC,7.74%,"6.51 µM [rising, single point]",
O=C(CSc1nc2ccccc2c(=O)n1CCCO)N1CCc2ccccc21,-29%,"16.4 µM [falling, single point]",
CCOC(=O)c1[nH]c2ccc(OC)cc2c1NC(=O)CCN1CCN(Cc2ccccc2)CC1,38.8%,"7.31 µM [rising, single point]","23.1 µM [rising, single point]"
Nc1nc(COc2ccc(Cl)cc2)cs1,,"0.58 µM [falling, single point]",
CCCNC(=O)COC(=O)c1[nH]c(C)c(C(=O)OCC)c1C,77.2%,"1.64 µM [rising, full curve]",
CCN(CC)S(=O)(=O)c1ccc(NC(=O)C(C)N(c2ccccc2)S(C)(=O)=O)cc1 (configuration not stated),-16.1%,"29.1 µM [falling, single point]",
O=C(NCCc1ccccc1C(F)(F)F)C1CCC(=O)N(C2CC2)C1 (configuration not stated),37.1%,,"32.6 µM [rising, single point]"
CN(CC(=O)Nc1ccccc1C(F)(F)F)C(=O)C1CC1,14.7%,"0.13 µM [falling, full curve, poor fit]",
CCOC(=O)C1=C(COc2ccccc2)NC(=O)NC1c1ccc(Cl)cc1 (configuration not stated),-9.58%,"11.6 µM [falling, partial curve]",
Nc1cc(Cl)ccc1N1CCCCC1,-8.59%,"0.731 µM [falling, full curve, poor fit]",
COc1cccc(N2CCN(CC(=O)NC(C)c3ccccc3)CC2)c1 (configuration not stated),0.824%,"13 µM [rising, partial curve]",
Cc1n(CC(=O)c2ccc(F)cc2)c2ccccc2[n+]1C,-26.5%,"23.1 µM [falling, single point]",
CCN1C=C(C(=O)OC)C(c2cccc(OC)c2OC)C(C(=O)OC)=C1,-58.4%,"23.1 µM [falling, single point]","29.1 µM [falling, single point]"

Compound,cell number change,AC50 [1],AC50 [2]
CC(C)Nc1nc(SCC(N)=O)nc(N2CCOCC2)n1,-76%,"7.31 µM [falling, single point]","13 µM [falling, partial curve, poor fit]"
COc1cccc2c(=O)n(CC(=O)NCCc3ccccc3)ccc12,4.53%,"0.13 µM [rising, full curve, poor fit]",
Cc1cc(NS(=O)(=O)c2ccc(NC(=S)NC(=O)c3cccnc3)cc2)no1,-18.2%,,
COc1ccc(C(=O)NC2CC3CCCC(C2)N3Cc2ccccc2)c(OC)c1 (configuration not stated),-0.525%,"6.51 µM [falling, single point]",
CCOc1cc(NC(=O)C2CC2)c(OCC)cc1NC(=O)c1cccc(F)c1,-6.67%,,
CCSc1nnc2ccc(-c3cccs3)nn12,-22.4%,,"2.06 µM [falling, partial curve, poor fit]"
O=C(COc1ccc(C(=O)NCc2cccnc2)cc1)Nc1cccc(C(F)(F)F)c1,126%,,"16.4 µM [rising, partial curve]"
CC(NC(=O)COC(=O)CCc1ccccc1)c1ccccc1 (configuration not stated),-32.8%,"0.13 µM [falling, full curve, poor fit]","3.26 µM [rising, single point]"
COc1ccccc1NC(=O)CSc1nnc(CNC(=O)c2ccco2)o1,44.2%,"29.1 µM [rising, single point]","32.6 µM [rising, single point]"
CC(=O)c1c[nH]c2ccc(C)cc2c1=O,,,"2.31 µM [rising, single point]"
Cc1nnc(SCC(=O)Nc2sc3c(c2C(=O)c2ccccc2)CCCC3)s1,29%,"8.2 µM [rising, partial curve]",
O=C(N/C(=C\c1ccc(Br)cc1)C(=O)N1CCOCC1)c1ccc(Br)o1,23.5%,,
O=S(=O)(NCC(c1ccco1)N1CCc2ccccc2C1)c1ccc(Br)cc1 (configuration not stated),-61%,"29.1 µM [falling, single point]","29.1 µM [falling, single point]"
Cc1ccccc1Nc1nc(N)nc(COC(=O)[C@@H](NC(=O)c2ccccc2Cl)C(C)C)n1,,"2.91 µM [falling, partial curve]","4.61 µM [falling, partial curve]"
O=c1c(Cc2c(F)cccc2Cl)c(O)ccn1CCc1c[nH]c2ccccc12,-35.2%,"22.4 µM [falling, partial curve]","11.2 µM [falling, partial curve]"
CCOC(=O)N1CCN(C(=O)c2ccc(Cl)nc2)CC1,-12.9%,"18.4 µM [falling, single point]",
CCn1cc(C2=NOC(C(=O)O)C2)c(C)n1 (configuration not stated),-5.77%,"0.00651 µM [rising, full curve, poor fit]",
Cc1ccc(Nc2nc(N/N=C\c3ccc4c(c3)OCO4)nc(N3CCOCC3)n2)cc1,-34.9%,,"1.84 µM [rising, partial curve]"

# A different layout for four compounds above:
Compound	cell number change	AC50 [1]	AC50 [2]
O=S(=O)(NCC(c1ccco1)N1CCc2ccccc2C1)c1ccc(Br)cc1 (configuration not stated)	-61%	29.1 µM [falling, single point]	29.1 µM [falling, single point]
Cc1ccccc1Nc1nc(N)nc(COC(=O)[C@@H](NC(=O)c2ccccc2Cl)C(C)C)n1		2.91 µM [falling, partial curve]	4.61 µM [falling, partial curve]
O=c1c(Cc2c(F)cccc2Cl)c(O)ccn1CCc1c[nH]c2ccccc12	-35.2%	22.4 µM [falling, partial curve]	11.2 µM [falling, partial curve]
CCOC(=O)N1CCN(C(=O)c2ccc(Cl)nc2)CC1	-12.9%	18.4 µM [falling, single point]	
